{"source": "patent US6410566B1", "about": "“Cyclic amine derivatives and their use as drugs” (Teijin Limited, priority 2000, dated 2002)", "target": "T1, binding of human MIP-1α to THP-1 cells (Homo sapiens, UniProt P32246)", "T1 construct": "endogenous in cells; host or cells: THP-1 (human monocytic leukemia cell line), whole cells", "T1 sequence (P32246 1-355)": "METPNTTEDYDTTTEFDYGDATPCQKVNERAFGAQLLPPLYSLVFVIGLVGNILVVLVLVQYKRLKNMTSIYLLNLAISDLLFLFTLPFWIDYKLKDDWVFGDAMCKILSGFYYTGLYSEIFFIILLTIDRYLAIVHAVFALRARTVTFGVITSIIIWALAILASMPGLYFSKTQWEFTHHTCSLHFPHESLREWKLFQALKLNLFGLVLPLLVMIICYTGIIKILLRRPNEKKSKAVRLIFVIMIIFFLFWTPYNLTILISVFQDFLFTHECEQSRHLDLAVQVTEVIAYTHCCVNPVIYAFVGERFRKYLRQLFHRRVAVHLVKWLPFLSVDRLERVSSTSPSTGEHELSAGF", "assay": "Inhibition of MIP-1α binding to THP-1 cells", "details": "at 10 μM", "experimental": "Measurement of Inhibition of MIP-1α Binding to THP-1 Cells by Test Compounds\nHuman monocytic leukemia cell line THP-1 was suspended in assay buffer (RPMI-1640 (Gibco-BRL Co.) containing 0.1% BSA and 25 mM HEPES adjusted to pH 7.4) to give a cell suspension of a concentration of 1×10^7 cells/mL. The test compound was diluted in the assay buffer and used as the test compound solution. Iodinated human MIP-1α (DuPont NEN Co.) was diluted in assay buffer to 250 nCi/mL and used as the labeled ligand solution. In a 96 well filter plate (Millipore Co.), 25 μL of test compound solution, 25 μL of labeled ligand solution and 50 μL of cell suspension were aliquoted into each well in this order, stirred (total reaction volume 100 μL), and incubated for one hour at 18° C.\nAfter the reaction, the reaction solution was filtered, and the filter was washed twice with 200 μL of cold PBS (200 μL of cold PBS was added and then filtered). […] The radioactivity retained by the cells on the filter were measured using TopCounit (Packard Instrument Co.).\nTo calculate the ability of test compounds to inhibit binding of human MIP-1α to THP-1 cells, non-specific binding determined by adding 100 ng of unlabeled human MIP-1α (Peprotech Co.) in place of the test compound was subtracted, while the counts with no test compound added was taken as 100%. […]", "note": "Some entries share one result that the patent states for a list of compounds.", "data": [{"smiles": "CC(C)C(NC(=O)c1cn(Cc2ccccc2)c2ccccc12)C(=O)NCC1CCN(Cc2ccc(Cl)cc2)CC1", "note": "(stereo not shown) [compound 660]", "values": [{"measurement": "inhibition of MIP-1α binding to THP-1 cells", "result": "20-50%"}]}]}
